Columns and labels:
Type in all cases: cell-based
[1] = test system: H1299 (lung); experiment: In vitro cytotoxic activity assay (MTT), H1299; conditions: Homo sapiens, NCI-H1299; H1299 cells, exposed for 96 hours; read-out: IC50, 50% inhibition of cell proliferation, H1299 (lung)
Method: (§1) Compounds 1-12 were screened for their in vitro cytotoxic activity utilizing a 3-(4,5-dimethyl-thiazol-2-yl)-2,5-diphenyltetrazolium bromide (MTT) assay against selected cancer human cell lines consisting of PC3 (prostate), HCT116 (colon), A375 (melanoma), H1299 (lung), MIAPaCa-2 (pancreas), HL60 (leukemia), MCF7 (breast), MDA-MB-231 (breast) (T. Mosmann, J. Immunol. Meth., 1983, 65, 55-63). The cells were cultured at 37° C. in RMPI1640 medium supplemented with 10% fetal bovine serum, 50 IU/mL penicillin, and 50 μg/mL streptomycin in a 5% CO2 incubator. All cells were sub-cultured 3 times/week by trypsinisation. Viable cells were seeded and allowed to adhere for 12 h before a test drug was added in 96-well plates at an initial density of 1.0×10^5 cells/mL. Tumour cell lines were separately exposed to various concentrations of the tested compounds followed by incubation at a temperature of 37° C. during 96 h inside a medium of fresh RMPI 1640. Cells were subsequently incubated at 37° C. using MTT at 0.5 mg/mL during 4 h. After removal of supernatant, formazan crystals were dissolved in isopropanol and the optical density was measured at 570 nm. CX-4945 was used as a positive control.

[2] = test system: MCF7 (breast); experiment: In vitro cytotoxic activity assay (MTT), MCF7; conditions: Homo sapiens; MCF7 cells, exposed for 96 hours; read-out: IC50, 50% inhibition of cell proliferation, MCF7 (breast)
Method: as §1

[3] = test system: HL60 (leukemia); experiment: In vitro cytotoxic activity assay (MTT), HL60; conditions: Homo sapiens, HL-60; HL60 cells, exposed for 96 hours; read-out: IC50, 50% inhibition of cell proliferation, HL60 (leukemia)
Method: as §1

[4] = test system: HCT116 (colon); experiment: In vitro cytotoxic activity assay (MTT), HCT116; conditions: Homo sapiens, HCT-116; HCT116 cells, exposed for 96 hours; read-out: IC50, 50% inhibition of cell proliferation, HCT116 (colon)
Method: as §1

[5] = test system: MDA-MB-231 (breast); experiment: In vitro cytotoxic activity assay (MTT), MDA-MB-231; conditions: Homo sapiens; MDA-MB-231 cells, exposed for 96 hours; read-out: IC50, 50% inhibition of cell proliferation, MDA-MB-231 (breast)
Method: as §1

[6] = test system: MIAPaCa-2 (pancreas); experiment: In vitro cytotoxic activity assay (MTT), MIAPaCa-2; conditions: Homo sapiens, MIA PaCa-2; MIAPaCa-2 cells, exposed for 96 hours; read-out: IC50, 50% inhibition of cell proliferation, MIAPaCa-2 (pancreas)
Method: as §1

[7] = test system: PC3 (prostate); experiment: In vitro cytotoxic activity assay (MTT), PC3; conditions: Homo sapiens, PC-3; PC3 cells, exposed for 96 hours; read-out: IC50, 50% inhibition of cell proliferation, PC3 (prostate)
Method: as §1

[8] = test system: A375 (melanoma); experiment: In vitro cytotoxic activity assay (MTT), A375; conditions: Homo sapiens, A-375; A375 cells, exposed for 96 hours; read-out: IC50, 50% inhibition of cell proliferation, A375 (melanoma)
Method: as §1

Q: What does the source list for `O=C(O)c1ccc2c(c1)nc(Nc1cccc(Cl)c1)c1ccncc12` [CX-4945, reference compound]?
A: IC50 [1]: 2300 nM; IC50 [2]: 9100 nM; IC50 [3]: 3700 nM; IC50 [4]: 2300 nM; IC50 [5]: 6200 nM; IC50 [6]: 1000 nM; IC50 [7]: 2000 nM; IC50 [8]: 4100 nM
